Results are given in words; binding and its absence hold for the method and conditions named. In cells and extracts the contact can be indirect. Here binding means that the protein was enriched with, or labelled near, the bait; the list need not be complete.
B1: RBM20 (protein, UniProt Q5T481 1-1227)
chain: MVLAAAMSQDADPSGPEQPDRVACSVPGARASPAPSGPRGMQQPPPPPQPPPPPQAGLPQIIQNAAKLLDKNPFSVSNPNPLLPSPASLQLAQLQAQLTLHRLKLAQTAVTNNTAAATVLNQVLSKVAMSQPLFNQLRHPSVITGPHGHAGVPQHAAAIPSTRFPSNAIAFSPPSQTRGPGPSMNLPNQPPSAMVMHPFTGVMPQTPGQPAVILGIGKTGPAPATAGFYEYGKASSGQTYGPETDGQPGFLPSSASTSGSVTYEGHYSHTGQDGQAAFSKDFYGPNSQGSHVASGFPAEQAGGLKSEVGPLLQGTNSQWESPHGFSGQSKPDLTAGPMWPPPHNQPYELYDPEEPTSDRTPPSFGGRLNNSKQGFIGAGRRAKEDQALLSVRPLQAHELNDFHGVAPLHLPHICSICDKKVFDLKDWELHVKGKLHAQKCLVFSENAGIRCILGSAEGTLCASPNSTAVYNPAGNEDYASNLGTSYVPIPARSFTQSSPTFPLASVGTTFAQRKGAGRVVHICNLPEGSCTENDVINLGLPFGKVTNYILMKSTNQAFLEMAYTEAAQAMVQYYQEKSAVINGEKLLIRMSKRYKELQLKKPGKAVAAIIQDIHSQRERDMFREADRYGPERPRSRSPVSRSLSPRSHTPSFTSCSSSHSPPGPSRADWGNGRDSWEHSPYARREEERDPAPWRDNGDDKRDRMDPWAHDRKHHPRQLDKAELDERPEGGRPHREKYPRSGSPNLPHSVSSYKSREDGYYRKEPKAKSDKYLKQQQDAPGRSRRKDEARLRESRHPHPDDSGKEDGLGPKVTRAPEGAKAKQNEKNKTKRTDRDQEGADDRKENTMAENEAGKEEQEGMEESPQSVGRQEKEAEFSDPENTRTKKEQDWESESEAEGESWYPTNMEELVTVDEVGEEEDFIVEPDIPELEEIVPIDQKDKICPETCLCVTTTLDLDLAQDFPKEGVKAVGNGAAEISLKSPRELPSASTSCPSDMDVEMPGLNLDAERKPAESETGLSLEDSDCYEKEAKGVESSDVHPAPTVQQMSSPKPAEERARQPSPFVDDCKTRGTPEDGACEGSPLEEKASPPIETDLQNQACQEVLTPENSRYVEMKSLEVRSPEYTEVELKQPLSLPSWEPEDVFSELSIPLGVEFVVPRTGFYCKLCGLFYTSEETAKMSHCRSAVHYRNLQKYLSQLAEEGLKETEGADSPRPEDSGIVPRFERKKL
B2: RBM28 (protein, UniProt Q9NW13 1-759)
chain: MAGLTLFVGRLPPSARSEQLEELFSQVGPVKQCFVVTEKGSKACRGFGYVTFSMLEDVQRALKEITTFEGCKINVTVAKKKLRNKTKEKGKNENSECPKKEPKAKKAKVADKKARLIIRNLSFKCSEDDLKTVFAQFGAVLEVNIPRKPDGKMRGFGFVQFKNLLEAGKALKGMNMKEIKGRTVAVDWAVAKDKYKDTQSVSAIGEEKSHESKHQESVKKKGREEEDMEEEENDDDDDDDDEEDGVFDDEDEEEENIESKVTKPVQIQKRAVKRPAPAKSSDHSEEDSDLEESDSIDDGEELAQSDTSTEEQEDKAVQVSNKKKRKLPSDVNEGKTVFIRNLSFDSEEEELGELLQQFGELKYVRIVLHPDTEHSKGCAFAQFMTQEAAQKCLLAASPENEAGGLKLDGRQLKVDLAVTRDEAAKLQTTKVKKPTGTRNLYLAREGLIRAGTKAAEGVSAADMAKRERFELLKHQKLKDQNIFVSRTRLCLHNLPKAVDDKQLRKLLLSATSGEKGVRIKECRVMRDLKGVHGNMKGQSLGYAFAEFQEHEHALKALRLINNNPEIFGPLKRPIVEFSLEDRRKLKMKELRIQRSLQKMRSKPATGEPQKGQPEPAKDQQQKAAQHHTEEQSKVPPEQKRKAGSTSWTGFQTKAEVEQVELPDGKKRRKVLALPSHRGPKIRLRDKGKVKPVHPKKPKPQINQWKQEKQQLSSEQVSRKKAKGNKTETRFNQLVEQYKQKLLGPSKGAPLAKRSKWFDS
B3: SART1 (protein, UniProt O43290 1-800)
chain: MGSSKKHRGEKEAAGTTAAAGTGGATEQPPRHREHKKHKHRSGGSGGSGGERRKRSRERGGERGSGRRGAEAEARSSTHGRERSQAEPSERRVKREKRDDGYEAAASSKTSSGDASSLSIEETNKLRAKLGLKPLEVNAIKKEAGTKEEPVTADVINPMALRQREELREKLAAAKEKRLLNQKLGKIKTLGEDDPWLDDTAAWIERSRQLQKEKDLAEKRAKLLEEMDQEFGVSTLVEEEFGQRRQDLYSARDLQGLTVEHAIDSFREGETMILTLKDKGVLQEEEDVLVNVNLVDKERAEKNVELRKKKPDYLPYAEDESVDDLAQQKPRSILSKYDEELEGERPHSFRLEQGGTADGLRERELEEIRAKLRLQAQSLSTVGPRLASEYLTPEEMVTFKKTKRRVKKIRKKEKEVVVRADDLLPLGDQTQDGDFGSRLRGRGRRRVSEVEEEKEPVPQPLPSDDTRVENMDISDEEEGGAPPPGSPQVLEEDEAELELQKQLEKGRRLRQLQQLQQLRDSGEKVVEIVKKLESRQRGWEEDEDPERKGAIVFNATSEFCRTLGEIPTYGLAGNREEQEELMDFERDEERSANGGSESDGEENIGWSTVNLDEEKQQQDFSASSTTILDEEPIVNRGLAAALLLCQNKGLLETTVQKVARVKAPNKSLPSAVYCIEDKMAIDDKYSRREEYRGFTQDFKEKDGYKPDVKIEYVDETGRKLTPKEAFRQLSHRFHGKGSGKMKTERRMKKLDEEALLKKMSSSDTPLGTVALLQEKQKAQKTPYIVLSGSGKSMNANTITK
B4: SFRS2 (protein, UniProt Q01130 1-221)
chain: MSYGRPPPDVEGMTSLKVDNLTYRTSPDTLRRVFEKYGRVGDVYIPRDRYTKESRGFAFVRFHDKRDAEDAMDAMDGAVLDGRELRVQMARYGRPPDSHHSRRGPPPRRYGGGGYGRRSRSPRRRRRSRSRSRSRSRSRSRSRYSRSKSRSRTRSRSRSTSKSRSARRSKSKSSSVSRSRSRSRSRSRSRSPPPVSKRESKSRSRSKSPPKSPEEEGAVSS
B5: BCR (protein, UniProt P11274 1-1271)
chain: MVDPVGFAEAWKAQFPDSEPPRMELRSVGDIEQELERCKASIRRLEQEVNQERFRMIYLQTLLAKEKKSYDRQRWGFRRAAQAPDGASEPRASASRPQPAPADGADPPPAEEPEARPDGEGSPGKARPGTARRPGAAASGERDDRGPPASVAALRSNFERIRKGHGQPGADAEKPFYVNVEFHHERGLVKVNDKEVSDRISSLGSQAMQMERKKSQHGAGSSVGDASRPPYRGRSSESSCGVDGDYEDAELNPRFLKDNLIDANGGSRPPWPPLEYQPYQSIYVGGMMEGEGKGPLLRSQSTSEQEKRLTWPRRSYSPRSFEDCGGGYTPDCSSNENLTSSEEDFSSGQSSRVSPSPTTYRMFRDKSRSPSQNSQQSFDSSSPPTPQCHKRHRHCPVVVSEATIVGVRKTGQIWPNDGEGAFHGDADGSFGTPPGYGCAADRAEEQRRHQDGLPYIDDSPSSSPHLSSKGRGSRDALVSGALESTKASELDLEKGLEMRKWVLSGILASEETYLSHLEALLLPMKPLKAAATTSQPVLTSQQIETIFFKVPELYEIHKEFYDGLFPRVQQWSHQQRVGDLFQKLASQLGVYRAFVDNYGVAMEMAEKCCQANAQFAEISENLRARSNKDAKDPTTKNSLETLLYKPVDRVTRSTLVLHDLLKHTPASHPDHPLLQDALRISQNFLSSINEEITPRRQSMTVKKGEHRQLLKDSFMVELVEGARKLRHVFLFTDLLLCTKLKKQSGGKTQQYDCKWYIPLTDLSFQMVDELEAVPNIPLVPDEELDALKIKISQIKNDIQREKRANKGSKATERLKKKLSEQESLLLLMSPSMAFRVHSRNGKSYTFLISSDYERAEWRENIREQQKKCFRSFSLTSVELQMLTNSCVKLQTVHSIPLTINKEDDESPGLYGFLNVIVHSATGFKQSSNLYCTLEVDSFGYFVNKAKTRVYRDTAEPNWNEEFEIELEGSQTLRILCYEKCYNKTKIPKEDGESTDRLMGKGQVQLDPQALQDRDWQRTVIAMNGIEVKLSVKFNSREFSLKRMPSRKQTGVFGVKIAVVTKRERSKVPYIVRQCVEEIERRGMEEVGIYRVSGVATDIQALKAAFDVNNKDVSVMMSEMDVNAIAGTLKLYFRELPEPLFTDEFYPNFAEGIALSDPVAKESCMLNLLLSLPEANLLTFLFLLDHLKRVAEKEAVNKMSLHNLATVFGPTLLRPSEKESKLPANPSQPITMTDSWSLEVMSQVQVLLYFLQLEAIPAPDSKRQSILFSTEV

Target: T1, CLN7 (human (endogenous in SH-SY5Y)) (UniProt Q8NHS3)
T1 sequence: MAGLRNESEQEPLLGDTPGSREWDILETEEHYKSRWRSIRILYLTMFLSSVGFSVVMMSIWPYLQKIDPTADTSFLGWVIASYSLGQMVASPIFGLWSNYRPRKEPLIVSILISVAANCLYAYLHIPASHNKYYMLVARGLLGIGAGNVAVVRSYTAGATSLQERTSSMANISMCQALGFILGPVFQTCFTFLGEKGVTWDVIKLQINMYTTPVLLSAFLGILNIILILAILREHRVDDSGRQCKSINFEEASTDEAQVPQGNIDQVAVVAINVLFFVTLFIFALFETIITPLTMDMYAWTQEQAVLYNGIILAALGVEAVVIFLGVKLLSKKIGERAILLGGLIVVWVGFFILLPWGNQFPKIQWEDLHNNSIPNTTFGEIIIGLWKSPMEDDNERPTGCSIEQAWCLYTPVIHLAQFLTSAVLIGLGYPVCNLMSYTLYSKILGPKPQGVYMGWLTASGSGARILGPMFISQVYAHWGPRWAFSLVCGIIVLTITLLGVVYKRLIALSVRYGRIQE
Assay: affinity purification with mass spectrometry; endogenous CLN7 immunoprecipitated from 2.5 mg SH-SY5Y lysate with a polyclonal anti-CLN7 antibody raised against L9 (351-421aa, Proteintech) on G-sepharose beads; IgG as non-specific binding control; 4 independent replicates; cells under steady state culture conditions

Binder	binding
B1	binds
B2	binds
B3	binds
B4	binds
B5	binds

Source: paper PMC12579238
